Data reported in US20050203117A1, “Treating allergic and inflammatory conditions” (priority 2002, published 2005).

Conditions: over 3,200 seasonal allergic rhinitis patients, 4 double-blind, randomized clinical trials

Clc1ccc2c(c1)CCc1cccnc1C2=C1CCNCC1 [desloratadine]
clinical efficacy in seasonal rhinitis: demonstrated the efficacy
